Laboratory results: PubChem BioAssay AID1159584 (Peter MacCallum Cancer Centre, 2016)
This is a random part of about 18,000 reagents tested. Not all columns of the deposit are shown. Reagent sequences are not shown. Not given: the amount of reagent, the time to read-out.

Aim: 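Genes whose loss is lethal only together with E-cadherin loss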 (primary screen)
System: human MCF10A breast epithelial cells, parental and CDH1-null
Reagents: siRNA against human genes
Read-out: 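ATP luminescence (CellTiter-Glo) viability per line relative to mean mock wells over all plates, and the ratio of CDH1-null to parental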
Direction: CDH1-null / parental viability ratio: higher = CDH1-null cells survive relatively better than parental

Silencing of CHMP1B (charged multivesicular body protein 1B) [SID135620871] came out at: CDH1-null / parental viability ratio 0.89.
Against TESK1 (testis associated actin remodelling kinase 1) [SID152149255], the entry reads CDH1-null / parental viability ratio 0.98.
Knock-down of GABPA (GA binding protein transcription factor subunit alpha) [SID152151973] came out at: CDH1-null / parental viability ratio 1.52.
Depletion of GTF2H4 (general transcription factor IIH subunit 4) [SID135624785] resulted in: CDH1-null / parental viability ratio 0.79.
Knock-down of SPATA9 (spermatogenesis associated 9) [SID152151371] came out at: CDH1-null / parental viability ratio 0.9.
LNPEP (leucyl and cystinyl aminopeptidase) [SID152151687] scored CDH1-null / parental viability ratio 1.16.
With knock-down of RPUSD1 (RNA pseudouridine synthase domain containing 1) [SID152148772], the screen gave CDH1-null / parental viability ratio 0.92.
TNS1 (tensin 1) [SID135621870] scored CDH1-null / parental viability ratio 1.27.
Depletion of FBP2 (fructose-bisphosphatase 2) [SID134314769] resulted in: CDH1-null / parental viability ratio 1.53.
Silencing of MBOAT7 [SID152152836] resulted in: CDH1-null / parental viability ratio 1.04.
With knock-down of ZNF83 (zinc finger protein 83) [SID152147952] the results were CDH1-null / parental viability ratio 1.17.
For BCAS4 (breast carcinoma amplified sequence 4) [SID135621966], the entry reads CDH1-null / parental viability ratio 0.76.
For CYP4A22 (cytochrome P450 family 4 subfamily A member 22) [SID152151313] the deposit lists CDH1-null / parental viability ratio 1.06.
Against SLC16A12 [SID152154220] the deposit lists CDH1-null / parental viability ratio 1.37.
With knock-down of JAM3 (junctional adhesion molecule 3) [SID134321290], the record shows CDH1-null / parental viability ratio 1.18.
Depletion of CST4 (cystatin S) [SID134315959] resulted in: CDH1-null / parental viability ratio 0.95.

Copied from the entries so far for reference:
SLC16A12 [SID152154220] → CDH1-null / parental viability ratio: 1.37
JAM3 (junctional adhesion molecule 3) [SID134321290] → CDH1-null / parental viability ratio: 1.18
CST4 (cystatin S) [SID134315959] → CDH1-null / parental viability ratio: 0.95

Next records:
For H2BC8 (H2B clustered histone 8) [SID134321248], the entry reads CDH1-null / parental viability ratio 1.27.
With knock-down of PSD3 (pleckstrin and Sec7 domain containing 3) [SID152156642], the record shows CDH1-null / parental viability ratio 1.06.
Depletion of EXOSC10 (exosome component 10) [SID152152402] came out at: CDH1-null / parental viability ratio 0.84.
Knock-down of DOCK11 (dedicator of cytokinesis 11) [SID152151064] gave: CDH1-null / parental viability ratio 1.44.
With knock-down of MUC13 (mucin 13, cell surface associated) [SID152155380] the results were CDH1-null / parental viability ratio 1.11.
ANXA8L1 (annexin A8 like 1) [SID152154117] gave CDH1-null / parental viability ratio 1.1.
Against PDE9A (phosphodiesterase 9A) [SID135620745], the values are CDH1-null / parental viability ratio 1.58.
Against PLCL2 (phospholipase C like 2) [SID152150810], the entry reads CDH1-null / parental viability ratio 1.04.
